Experimental data as given in publication PMC3115956.
These are yes or no findings as the source states them, for the method shown. Binding seen in cells or lysates may run through a third protein. Some results given as binding are weak or reduced against the parent protein; the word gives no strength. For some assays here: Where a sequence is shown, tags or fusion partners need not be part of it.

T1: SLXL1 (native, testis) (mouse (endogenous in testis)) (UniProt K9J714)
T1 sequence: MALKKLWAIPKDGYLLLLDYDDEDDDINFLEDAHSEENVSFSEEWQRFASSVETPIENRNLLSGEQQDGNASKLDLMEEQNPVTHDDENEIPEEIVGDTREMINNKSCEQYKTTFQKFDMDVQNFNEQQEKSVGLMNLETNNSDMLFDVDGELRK

T2: Flag-DKKL1 (mouse) (UniProt Q9QZL9)
T2 sequence: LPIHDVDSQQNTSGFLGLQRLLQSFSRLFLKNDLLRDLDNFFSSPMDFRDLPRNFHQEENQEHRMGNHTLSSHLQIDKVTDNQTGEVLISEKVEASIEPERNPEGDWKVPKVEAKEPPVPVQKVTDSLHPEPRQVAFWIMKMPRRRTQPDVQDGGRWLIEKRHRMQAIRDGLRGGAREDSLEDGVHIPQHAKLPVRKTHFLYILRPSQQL


Tests used:
[1] = target: T1, SLXL1 (native, testis) (mouse (endogenous in testis)); test: co-IP; total mouse testis lysate incubated with anti-SLXL1 1-155aa antiserum or rabbit preimmune serum for 2 h at 4°C, then protein A agarose beads overnight at 4°C, washed 5 times in PBS; blots with anti-SLXL1 65-155aa and anti-DKKL1
[2] = target: T2, Flag-DKKL1 (mouse); test: co-IP; SLXL1-GFP and Flag-DKKL1 co-transfected into HEK293T; RIPA lysate 48 h after transfection incubated with Flag-conjugated sepharose beads overnight at 4°C, washed 5 times; blots with anti-GFP and anti-FLAG; control: empty pFlag-CMV-4 with Slxl1-GFP

binding [1]	binding [2]	Binder
binds	–	DKKL1 (native, testis) (protein, UniProt Q9QZL9 21-230) LPIHDVDSQQNTSGFLGLQRLLQSFSRLFLKNDLLRDLDNFFSSPMDFRDLPRNFHQEENQEHRMGNHTLSSHLQIDKVTDNQTGEVLISEKVEASIEPERNPEGDWKVPKVEAKEPPVPVQKVTDSLHPEPRQVAFWIMKMPRRRTQPDVQDGGRWLIEKRHRMQAIRDGLRGGAREDSLEDGVHIPQHAKLPVRKTHFLYILRPSQQL
–	binds	SLXL1-GFP (protein, UniProt K9J714 1-155) MALKKLWAIPKDGYLLLLDYDDEDDDINFLEDAHSEENVSFSEEWQRFASSVETPIENRNLLSGEQQDGNASKLDLMEEQNPVTHDDENEIPEEIVGDTREMINNKSCEQYKTTFQKFDMDVQNFNEQQEKSVGLMNLETNNSDMLFDVDGELRK
